# In PubChem BioAssay AID1671190 (National Center for Advancing Translational Sciences (NCATS), 2021):
# By UniProt entry, the sequences of proteins in these tests, tags left out. Where a name states a change or a piece, a line headed by the entry shows the natural chain unless it says otherwise.
# UniProt P18054: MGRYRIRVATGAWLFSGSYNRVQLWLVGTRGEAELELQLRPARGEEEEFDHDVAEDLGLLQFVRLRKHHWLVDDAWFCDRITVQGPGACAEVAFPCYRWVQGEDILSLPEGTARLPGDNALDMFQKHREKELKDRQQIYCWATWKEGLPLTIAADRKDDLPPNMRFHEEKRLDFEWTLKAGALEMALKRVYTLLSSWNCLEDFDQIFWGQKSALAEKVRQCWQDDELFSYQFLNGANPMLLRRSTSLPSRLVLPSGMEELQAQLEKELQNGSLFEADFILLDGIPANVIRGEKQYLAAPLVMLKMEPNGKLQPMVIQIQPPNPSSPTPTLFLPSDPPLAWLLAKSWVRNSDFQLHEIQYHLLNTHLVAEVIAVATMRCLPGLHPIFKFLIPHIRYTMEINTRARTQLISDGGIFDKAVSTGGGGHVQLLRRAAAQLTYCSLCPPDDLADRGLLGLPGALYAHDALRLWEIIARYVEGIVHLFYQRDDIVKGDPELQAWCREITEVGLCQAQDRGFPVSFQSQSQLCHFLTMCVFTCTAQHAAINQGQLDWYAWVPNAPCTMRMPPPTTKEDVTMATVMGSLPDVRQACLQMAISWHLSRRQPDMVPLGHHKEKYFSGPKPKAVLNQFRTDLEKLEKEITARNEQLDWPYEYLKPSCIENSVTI
# Several values for one entry are separate records, joined by “and”; a condition that tells them apart may be missing. Equal entries are not always repeated. Screen size: about 580,000 compounds; about 6,100 (1.1%) were called active. The inconclusive results got no clear call from the source; some entries with a clear call stand among them for comparison. The call rests on the fitted dose curve; in most records, active means well fitted inhibition curve with a large enough effect; inconclusive means small, poorly fitted or top-dose-only effect, or another doubt; inactive means no such curve, though single readings can be large or run the other way. A potency beside an inconclusive call is a rough fit, not a confirmed value.
# Molecular target: Polyunsaturated fatty acid lipoxygenase ALOX12 (Homo sapiens) (UniProt P18054)
# Test: Primary qHTS assay for inhibitors of human arachidonate 12S-lipoxygenase (ALOX12): Round 2
# Conditions: purified 12hLO, xylenol orange hydroperoxide absorbance; activity change, negative = inhibition: at 108 µM (top of the series) unless noted
# How it was run: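 Purified human 12hLO at 150 nM in 25 mM Hepes, 0.01% Triton X-100, pH 7.0, preincubated 15 min at room temperature with compound. Reaction started with 40 uM arachidonic acid, 30 min at room temperature. Hydroperoxide measured by Fe-xylenol orange, 573/405 nm absorbance ratio.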
# On the % scale 0 is the no-effect control and ±100 the full control effect; potency means the concentration at half of the fitted maximal effect.
Structure (SMILES),Potency,"activity change, negative = inhibition"
O=S(=O)(c1cccc2cccnc12)N1CCN(c2ccccn2)CC1,"inconclusive: 112 µM [inhibitor, partial curve, poor fit]",–
Cc1nc(CN2C(=O)OC3(CCN(CCc4ccccc4)CC3)C2(C)c2ccccc2)cs1 (stereo not given),"inconclusive: 31.6 µM [inhibitor, full curve, poor fit]",–
O=C(Nc1ccc(Br)cc1)c1cc(-c2ccncc2)nc2ccccc12,"inconclusive: 79.4 µM [inhibitor, single point]",–
Cc1cc(C)cc(NC(=O)c2cnn(-c3ccc(C)c(C)c3)c2C2CCNCC2)c1,"inconclusive: 100 µM [inhibitor, partial curve, poor fit]",–
Cc1cc(C)cc(NC(=O)CSc2nc3ccccc3nc2N2CCCCC2)c1,–,inactive: 0.431%
C[C@@H](c1ccccc1)N1C[C@@H](COCc2ccccc2)Oc2cc(N3CC[C@H](N(C)C)C3)ccc2S1(=O)=O,"inconclusive: 28.2 µM [inhibitor, single point]",–
CC(NC(=O)c1cc(-c2ccco2)nc2ccccc12)c1ccccc1 (stereo not given),active: 44.7 µM,–
CN(CC(=O)Nc1ccc(F)c(F)c1F)C(=O)C1=COCCO1,"inconclusive: 6.31 µM [inhibitor, full curve]",–
CCC1CCc2c(sc(NC(=O)/C=C/c3ccc(C(C)(C)C)cc3)c2C#N)C1 (stereo not given),"inconclusive: 50.1 µM [inhibitor, partial curve]",–
O=C(Cc1ccccc1)NCC(=O)N1CCN(Cc2cccc(Cl)c2)CC1,"inconclusive: 112 µM [inhibitor, single point]",–
COc1ccc(S(=O)(=O)N2CCCCC2)cc1NC(=S)Nc1cccc(Cl)c1C,active: 39.8 µM,–
Cc1cc(O)c2c(CN3CCN(Cc4ccccc4)CC3)cc(=O)oc2c1,"inactive and inconclusive: 112 µM [inhibitor, single point]",–
COc1ccccc1CN1CCN(C(=O)c2ccco2)CC1,"inconclusive: 1.78 µM [inhibitor, full curve, poor fit]",–
O=C1/C(=C/c2ccc(F)c(Br)c2)Cc2ccccc21,"inconclusive: 0.199 µM [inhibitor, full curve, poor fit]",–
Cc1ccc(S(=O)(=O)N2CCN(C(=O)COC(=O)/C=C/c3ccc(Cl)cc3)CC2)c(C)c1,"inconclusive: 44.7 µM [inhibitor, partial curve, poor fit]",–
COc1ccc(F)c(-c2nc(CN3CCN(C(=O)c4ccco4)CC3)c(C)o2)c1,"inconclusive: 35.5 µM [inhibitor, single point]",–
Cc1ccccc1-c1nc(C#N)c(NCCc2ccccc2)o1,–,inactive: -19.4%
CCN(CC)CC12CC3CCC(CC(C3)C1)C2,–,inactive: -3.29%
Cc1cc(C(=O)Nc2cnn(Cc3ccc(Cl)cc3Cl)c2)no1,–,inactive: -5.98%
c1cncc(-c2noc(C3CCCN(Cc4cc5n(n4)CCNC5)C3)n2)c1 (stereo not given),"inconclusive: 31.6 µM [inhibitor, single point]",–

# Whole records, looked up by structure.
# Cc1cc(C(=O)Nc2cnn(Cc3ccc(Cl)cc3Cl)c2)no1 as listed: activity change, negative = inhibition: inactive: -5.98%
# COc1ccc(F)c(-c2nc(CN3CCN(C(=O)c4ccco4)CC3)c(C)o2)c1 as listed: Potency: inconclusive: 35.5 µM [inhibitor, single point]

# (cont.)

Structure (SMILES),Potency,"activity change, negative = inhibition"
N#Cc1c2n(c(=O)n(CCOc3ccccc3)c1=O)CCC2,"inconclusive: 39.8 µM [inhibitor, partial curve, poor fit]",–
O=C(N/N=C/c1ccc([N+](=O)[O-])o1)c1ccc(O)cc1,inactive,–
CCCCC[C@H](C)N1C[C@H](COCc2ccccc2)Oc2cc(N3CCC[C@H]3C(N)=O)ccc2S1(=O)=O,"inconclusive: 112 µM [inhibitor, single point]",–
O=C(Nc1cccc2[nH]ccc12)C(=O)NC1CCCC1,–,inactive: 4.7%
O=C(CSc1nnnn1-c1ccccc1)Nc1ccccc1C(=O)O,"inconclusive: 0.199 µM [inhibitor, full curve, poor fit]",–
Cc1cc[n+](CC(=O)Nc2cccc(C)c2)cc1,"inconclusive: 44.7 µM [inhibitor, partial curve, poor fit]",–
CCn1cc(CN2CCCC(c3nc(C(C)C)no3)CCNC(=O)CC2)cn1 (stereo not given),–,inactive: 8.87%
C/C(=N/Nc1ccc([N+](=O)[O-])cc1)c1c[nH]c2ccccc12,"inconclusive: 70.8 µM [inhibitor, partial curve, poor fit]",–
CC(=O)Nc1nc(C(=O)O)cs1,"inconclusive: 20 µM [inhibitor, full curve, poor fit]",–
CCOc1cc(C2C(C(=O)OC)=C(C)NC3=C2C(=O)c2ccccc23)ccc1OCC#N (stereo not given),"inconclusive: 35.5 µM [inhibitor, partial curve, poor fit]",–
Cc1ccc2c(c1)c(C1=NC(=S)NC1=O)c(O)n2C,–,inactive: 16.9%
OCCN1CCN(C(c2ccc(Cl)cc2Cl)c2sc3nc(-c4ccco4)nn3c2O)CC1 (stereo not given),"inconclusive: 11.2 µM [inhibitor, full curve, poor fit]",–
COC(=O)[C@@H]1[C@@H](CO)[C@@H]2Cn3c(cccc3=O)[C@@H]2N1C(=O)c1cnccn1,"inconclusive: 112 µM [inhibitor, single point]",–
COc1ccc(-c2nc3ccc(C(=O)NCCCN4CCOCC4)cc3nc2-c2ccc(OC)cc2)cc1,"inconclusive: 70.8 µM [inhibitor, partial curve, poor fit]",–
COc1ccc(N(C)S(=O)(=O)c2ccc(Cl)c(C(=O)NCCc3ccc(Cl)cc3)c2)cc1,"inconclusive: 44.7 µM [inhibitor, partial curve, poor fit]",–
Cc1ccc(C2CC(=O)c3cn4nc(C(F)(F)F)nc4nc3C2)cc1 (stereo not given),"inconclusive: 22.4 µM [inhibitor, partial curve, poor fit]",–
COc1ccc(CC(N)C(=O)NC2C(O)[C@H](n3cnc4c(N(C)C)ncnc43)O[C@@H]2CO)cc1 (stereo not given in full),"inconclusive: 28.2 µM [inhibitor, single point]",–
COc1ccc(S(=O)(=O)Nc2ccc(CCc3nc4ccccc4n3C)cc2)cc1,"inconclusive: 35.5 µM [inhibitor, single point]",–
CC(C)c1ccc2c(c1)NC(c1ccncc1)=NC(c1cccs1)=N2,"inconclusive: 56.2 µM [inhibitor, partial curve, poor fit]",–
COc1ccc(-c2cc(OC(=O)c3ccccc3)c3c(C)oc(C)c3c(=O)c2)cc1OC,"inconclusive: 141 µM [inhibitor, single point]",–
